Test results published in the supplement of paper PMC10849652.
The other results are listed elsewhere or left out.

Chains of the proteins cited; added tags and fusions are not shown. Lines headed by an entry give the natural chain unless they say otherwise; changes in a name come on top.
UniProt O75964: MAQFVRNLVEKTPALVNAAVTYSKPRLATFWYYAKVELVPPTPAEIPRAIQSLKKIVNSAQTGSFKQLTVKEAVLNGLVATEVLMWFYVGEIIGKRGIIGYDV
UniProt Q16864, whole entry, looked up: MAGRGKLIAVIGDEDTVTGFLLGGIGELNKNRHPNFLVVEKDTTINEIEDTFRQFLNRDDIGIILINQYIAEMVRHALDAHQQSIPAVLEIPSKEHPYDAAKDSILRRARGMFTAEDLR
UniProt Q9UBL3, whole entry, looked up: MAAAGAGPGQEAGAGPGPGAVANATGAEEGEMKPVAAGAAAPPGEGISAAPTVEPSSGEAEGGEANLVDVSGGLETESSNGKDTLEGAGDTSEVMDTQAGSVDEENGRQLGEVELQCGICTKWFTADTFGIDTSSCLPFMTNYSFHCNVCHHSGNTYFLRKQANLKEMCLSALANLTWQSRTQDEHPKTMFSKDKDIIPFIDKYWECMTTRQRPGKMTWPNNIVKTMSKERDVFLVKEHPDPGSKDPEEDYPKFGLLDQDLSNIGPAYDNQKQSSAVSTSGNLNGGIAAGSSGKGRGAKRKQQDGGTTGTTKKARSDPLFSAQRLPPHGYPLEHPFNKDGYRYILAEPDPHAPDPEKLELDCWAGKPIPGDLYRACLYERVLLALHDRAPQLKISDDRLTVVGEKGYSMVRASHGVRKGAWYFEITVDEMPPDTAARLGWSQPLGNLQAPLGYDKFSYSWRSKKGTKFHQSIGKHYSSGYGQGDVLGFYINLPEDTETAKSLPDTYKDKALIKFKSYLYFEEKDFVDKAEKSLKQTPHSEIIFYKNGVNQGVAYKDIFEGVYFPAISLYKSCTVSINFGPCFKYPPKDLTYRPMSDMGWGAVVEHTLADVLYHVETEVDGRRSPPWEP
UniProt Q6DD88: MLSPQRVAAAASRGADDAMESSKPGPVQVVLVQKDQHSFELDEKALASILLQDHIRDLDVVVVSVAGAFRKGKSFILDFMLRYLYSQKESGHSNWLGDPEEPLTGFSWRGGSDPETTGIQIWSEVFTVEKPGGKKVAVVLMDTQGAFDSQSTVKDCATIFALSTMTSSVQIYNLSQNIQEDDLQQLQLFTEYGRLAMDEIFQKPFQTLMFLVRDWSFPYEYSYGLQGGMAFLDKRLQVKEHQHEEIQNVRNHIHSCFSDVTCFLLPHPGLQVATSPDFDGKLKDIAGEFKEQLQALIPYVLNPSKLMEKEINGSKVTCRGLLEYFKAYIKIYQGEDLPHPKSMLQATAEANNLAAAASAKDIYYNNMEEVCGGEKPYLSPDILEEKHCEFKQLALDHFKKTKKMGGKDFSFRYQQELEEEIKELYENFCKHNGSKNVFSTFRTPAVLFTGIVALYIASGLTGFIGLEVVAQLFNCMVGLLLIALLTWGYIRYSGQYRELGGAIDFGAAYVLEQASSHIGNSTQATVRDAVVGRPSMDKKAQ
UniProt Q96IX5: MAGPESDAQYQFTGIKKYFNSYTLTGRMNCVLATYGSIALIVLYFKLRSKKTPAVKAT
UniProt P21281, whole entry, looked up: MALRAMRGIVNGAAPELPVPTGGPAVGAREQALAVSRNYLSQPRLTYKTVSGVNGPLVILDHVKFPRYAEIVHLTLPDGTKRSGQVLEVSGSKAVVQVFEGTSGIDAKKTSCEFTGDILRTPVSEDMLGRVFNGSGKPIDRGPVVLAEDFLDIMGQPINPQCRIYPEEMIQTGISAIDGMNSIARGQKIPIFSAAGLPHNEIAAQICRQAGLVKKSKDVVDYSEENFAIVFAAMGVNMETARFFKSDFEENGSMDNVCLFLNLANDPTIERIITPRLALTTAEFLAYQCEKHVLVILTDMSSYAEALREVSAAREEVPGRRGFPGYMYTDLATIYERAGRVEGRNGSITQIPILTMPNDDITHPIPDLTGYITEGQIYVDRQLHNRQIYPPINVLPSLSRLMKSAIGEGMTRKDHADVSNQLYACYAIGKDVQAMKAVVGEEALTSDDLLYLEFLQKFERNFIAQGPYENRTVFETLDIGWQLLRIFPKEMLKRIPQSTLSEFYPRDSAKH
UniProt O75348, whole entry, looked up: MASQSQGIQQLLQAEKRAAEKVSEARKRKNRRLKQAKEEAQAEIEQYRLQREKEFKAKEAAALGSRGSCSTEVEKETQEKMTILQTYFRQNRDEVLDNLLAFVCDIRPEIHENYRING
UniProt Q9Y5K8, whole entry, looked up: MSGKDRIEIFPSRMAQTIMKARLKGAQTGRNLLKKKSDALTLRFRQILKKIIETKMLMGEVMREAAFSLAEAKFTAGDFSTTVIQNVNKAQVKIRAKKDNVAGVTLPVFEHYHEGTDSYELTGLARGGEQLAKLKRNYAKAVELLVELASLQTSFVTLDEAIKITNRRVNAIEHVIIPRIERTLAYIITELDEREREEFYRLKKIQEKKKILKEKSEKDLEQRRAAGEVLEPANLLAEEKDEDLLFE
UniProt Q8N3C0, whole entry, looked up: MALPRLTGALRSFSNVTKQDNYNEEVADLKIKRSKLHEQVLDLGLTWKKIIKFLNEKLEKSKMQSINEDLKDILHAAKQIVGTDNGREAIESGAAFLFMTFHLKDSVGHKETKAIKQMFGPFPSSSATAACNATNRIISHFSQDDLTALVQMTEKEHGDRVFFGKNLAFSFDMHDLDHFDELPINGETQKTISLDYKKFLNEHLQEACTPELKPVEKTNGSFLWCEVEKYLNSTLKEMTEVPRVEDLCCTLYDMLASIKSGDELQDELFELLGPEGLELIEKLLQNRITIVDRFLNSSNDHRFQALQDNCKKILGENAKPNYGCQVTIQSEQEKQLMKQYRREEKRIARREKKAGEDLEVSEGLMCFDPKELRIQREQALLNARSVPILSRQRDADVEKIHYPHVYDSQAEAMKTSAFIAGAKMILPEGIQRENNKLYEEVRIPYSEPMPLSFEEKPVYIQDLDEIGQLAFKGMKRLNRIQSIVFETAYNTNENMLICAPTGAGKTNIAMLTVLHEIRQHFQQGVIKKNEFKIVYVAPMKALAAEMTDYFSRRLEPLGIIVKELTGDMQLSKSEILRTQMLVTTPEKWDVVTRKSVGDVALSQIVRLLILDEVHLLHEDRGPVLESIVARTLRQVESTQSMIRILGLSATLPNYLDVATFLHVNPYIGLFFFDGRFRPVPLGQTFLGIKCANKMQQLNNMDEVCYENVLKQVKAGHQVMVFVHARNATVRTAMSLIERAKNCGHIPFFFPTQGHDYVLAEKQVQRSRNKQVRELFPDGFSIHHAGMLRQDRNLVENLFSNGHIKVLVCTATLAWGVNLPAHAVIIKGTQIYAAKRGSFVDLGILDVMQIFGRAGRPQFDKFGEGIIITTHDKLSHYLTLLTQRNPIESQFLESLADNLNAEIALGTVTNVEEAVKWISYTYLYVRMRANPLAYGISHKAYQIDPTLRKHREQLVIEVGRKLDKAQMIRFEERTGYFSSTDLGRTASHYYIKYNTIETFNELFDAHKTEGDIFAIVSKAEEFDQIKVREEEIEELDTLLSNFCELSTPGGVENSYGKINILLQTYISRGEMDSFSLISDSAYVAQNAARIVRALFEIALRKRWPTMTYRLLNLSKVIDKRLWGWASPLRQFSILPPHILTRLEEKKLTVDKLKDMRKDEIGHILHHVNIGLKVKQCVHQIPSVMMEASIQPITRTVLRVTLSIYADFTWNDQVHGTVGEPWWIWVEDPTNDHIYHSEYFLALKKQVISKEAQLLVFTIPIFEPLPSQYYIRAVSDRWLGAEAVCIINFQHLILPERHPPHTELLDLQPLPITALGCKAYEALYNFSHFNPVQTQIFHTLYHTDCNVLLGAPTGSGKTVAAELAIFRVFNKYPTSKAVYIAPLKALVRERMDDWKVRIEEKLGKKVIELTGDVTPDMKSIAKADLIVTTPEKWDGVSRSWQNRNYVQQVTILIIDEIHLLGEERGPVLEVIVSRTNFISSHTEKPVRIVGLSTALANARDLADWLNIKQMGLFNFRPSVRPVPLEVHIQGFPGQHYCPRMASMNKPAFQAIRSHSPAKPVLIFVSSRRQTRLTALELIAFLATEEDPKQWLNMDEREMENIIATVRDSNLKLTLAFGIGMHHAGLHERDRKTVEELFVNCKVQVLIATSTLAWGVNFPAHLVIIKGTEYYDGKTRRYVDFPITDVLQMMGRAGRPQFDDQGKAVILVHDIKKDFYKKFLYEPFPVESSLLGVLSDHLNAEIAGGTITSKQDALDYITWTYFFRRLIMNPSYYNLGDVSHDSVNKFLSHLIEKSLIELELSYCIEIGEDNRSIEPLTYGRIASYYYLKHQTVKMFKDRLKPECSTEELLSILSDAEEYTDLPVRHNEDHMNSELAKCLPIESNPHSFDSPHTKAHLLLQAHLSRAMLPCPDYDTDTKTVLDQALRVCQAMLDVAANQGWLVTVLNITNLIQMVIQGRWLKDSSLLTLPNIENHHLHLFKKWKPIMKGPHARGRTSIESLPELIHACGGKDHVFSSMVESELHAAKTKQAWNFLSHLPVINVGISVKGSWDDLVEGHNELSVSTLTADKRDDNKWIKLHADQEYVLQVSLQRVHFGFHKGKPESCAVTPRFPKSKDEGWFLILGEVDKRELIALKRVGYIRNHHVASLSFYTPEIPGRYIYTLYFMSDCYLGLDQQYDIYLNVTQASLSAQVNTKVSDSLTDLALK
UniProt P21283, whole entry, looked up: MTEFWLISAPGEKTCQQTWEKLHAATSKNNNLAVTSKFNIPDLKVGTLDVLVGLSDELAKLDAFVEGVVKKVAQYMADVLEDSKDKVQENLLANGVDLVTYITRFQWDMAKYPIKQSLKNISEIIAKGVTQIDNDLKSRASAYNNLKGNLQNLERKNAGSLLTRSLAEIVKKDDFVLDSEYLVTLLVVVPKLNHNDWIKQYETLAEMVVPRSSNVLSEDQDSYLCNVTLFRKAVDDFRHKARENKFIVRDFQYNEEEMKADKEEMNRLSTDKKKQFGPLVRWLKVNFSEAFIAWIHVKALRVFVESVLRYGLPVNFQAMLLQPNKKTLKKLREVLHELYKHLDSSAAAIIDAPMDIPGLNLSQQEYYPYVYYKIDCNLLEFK
UniProt P20020: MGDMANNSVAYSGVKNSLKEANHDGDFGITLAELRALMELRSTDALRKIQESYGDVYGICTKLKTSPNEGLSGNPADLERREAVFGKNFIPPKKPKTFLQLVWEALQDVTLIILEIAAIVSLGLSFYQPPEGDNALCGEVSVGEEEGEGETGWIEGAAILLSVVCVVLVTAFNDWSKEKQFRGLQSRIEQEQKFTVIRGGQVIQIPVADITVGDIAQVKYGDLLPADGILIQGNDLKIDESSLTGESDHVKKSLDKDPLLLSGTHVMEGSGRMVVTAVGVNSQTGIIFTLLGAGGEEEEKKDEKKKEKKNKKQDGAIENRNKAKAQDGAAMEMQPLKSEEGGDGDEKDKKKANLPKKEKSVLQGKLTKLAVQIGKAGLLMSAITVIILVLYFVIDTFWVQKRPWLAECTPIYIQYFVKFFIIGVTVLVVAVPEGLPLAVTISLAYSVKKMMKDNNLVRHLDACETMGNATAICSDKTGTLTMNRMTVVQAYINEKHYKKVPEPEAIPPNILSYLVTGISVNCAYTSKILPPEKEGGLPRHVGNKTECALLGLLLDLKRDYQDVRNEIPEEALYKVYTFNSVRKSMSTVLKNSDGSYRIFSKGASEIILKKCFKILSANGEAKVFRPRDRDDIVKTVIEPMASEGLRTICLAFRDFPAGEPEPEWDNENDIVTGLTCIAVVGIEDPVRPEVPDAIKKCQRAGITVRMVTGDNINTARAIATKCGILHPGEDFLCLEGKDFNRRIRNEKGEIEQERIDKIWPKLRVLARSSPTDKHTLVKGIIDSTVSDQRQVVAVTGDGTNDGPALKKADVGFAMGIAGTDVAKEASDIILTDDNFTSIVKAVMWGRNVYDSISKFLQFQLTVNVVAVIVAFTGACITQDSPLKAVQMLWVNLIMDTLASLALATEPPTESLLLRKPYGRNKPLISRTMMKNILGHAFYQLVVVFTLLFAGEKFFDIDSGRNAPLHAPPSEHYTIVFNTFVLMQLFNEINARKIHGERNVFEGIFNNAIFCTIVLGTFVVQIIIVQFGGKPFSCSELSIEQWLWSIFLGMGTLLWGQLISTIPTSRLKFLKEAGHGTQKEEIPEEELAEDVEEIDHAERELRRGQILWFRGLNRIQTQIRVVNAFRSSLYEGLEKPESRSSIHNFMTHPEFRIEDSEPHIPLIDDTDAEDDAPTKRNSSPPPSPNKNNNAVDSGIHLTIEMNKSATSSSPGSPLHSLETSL
UniProt Q8N5I2: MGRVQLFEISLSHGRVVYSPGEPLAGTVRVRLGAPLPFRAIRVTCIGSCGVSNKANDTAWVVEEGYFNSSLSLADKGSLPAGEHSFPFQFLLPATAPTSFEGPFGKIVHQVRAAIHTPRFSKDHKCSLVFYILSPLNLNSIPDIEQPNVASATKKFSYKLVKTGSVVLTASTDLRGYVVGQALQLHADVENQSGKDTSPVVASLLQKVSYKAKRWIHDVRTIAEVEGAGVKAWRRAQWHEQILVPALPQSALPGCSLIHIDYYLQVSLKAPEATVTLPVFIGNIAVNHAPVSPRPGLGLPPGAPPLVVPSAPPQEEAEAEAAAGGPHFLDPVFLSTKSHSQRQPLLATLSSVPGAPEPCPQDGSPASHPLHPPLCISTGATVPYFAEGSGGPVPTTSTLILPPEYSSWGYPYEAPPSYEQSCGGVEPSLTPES

Experiments:
Test in all cases: log2 fold change, soluble protein after heating vs DMSO (PISA); higher = thermal stabilisation; K562 cells, 10 uM, 30 min; active = over 0.2 and 3.5 SD of the protein, either way, in both replicates (recomputed)
[1] = compound: Cc1ccc(NC(=O)c2ccc(CN3CC[C@H](N(C)C)C3)c(C(F)(F)F)c2)cc1Nc1nccc(-c2cncnc2)n1 [bafetinib]
How it was run: (§1)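 K562 cells (2×10^6 cells/mL) were treated with 10 μM compound for 30 min, and aliquots were heated for 3 min over 48°C-58°C. Pooled aliquots were extracted in PBS with 0.5% NP-40 at 4°C, and the supernatant after 21,000xg for 90 min was measured by TMTpro 16plex LC-MS/MS with channel sums equalised. Reported thermal stability, relative to control samples and from duplicates, is a log2 fold change.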

[2] = compound: Cc1cccc(CC(=O)N2CCc3c2ccc(-c2cn(C)c4ncnc(N)c24)c3F)n1
How it was run: as §1

[3] = compound: Cc1cn(-c2cc(NC(=O)c3ccc(C)c(Nc4nccc(-c5cccnc5)n4)c3)cc(C(F)(F)F)c2)cn1 [nilotinib]
How it was run: as §1

[4] = compound: Cc1nc(Nc2n[nH]c3c2CN(C(=O)N[C@H](CN(C)C)c2ccccc2)C3(C)C)c2sccc2n1
How it was run: as §1

[5] = compound: Cc1nc(Nc2ncc(C(=O)Nc3c(C)cccc3Cl)s2)cc(N2CCN(CCO)CC2)n1 [dasatinib]
How it was run: as §1

[6] = compound: Cc1ncc(-c2ccnc(Nc3ccc(S(C)(=O)=O)cc3)n2)n1C(C)C
How it was run: as §1

[7] = compound: Cn1cc(-c2ccc3c(c2)CCN3C(=O)Cc2cccc(C(F)(F)F)c2)c2c(N)ncnc21
How it was run: as §1

[8] = compound: Cn1cc(-c2ccc3nnc(C(F)(F)c4ccc5ncccc5c4)n3n2)cn1
How it was run: as §1

[9] = compound: Cn1cncc1[C@@](N)(c1ccc(Cl)cc1)c1ccc2c(c1)c(-c1cccc(Cl)c1)cc(=O)n2C [tipifarnib]
How it was run: as §1

[10] = compound: FC(F)(F)c1ccc(/C=C/c2nc(COc3ccc(CCCCn4ccnn4)cc3)co2)cc1 [mubritinib]
How it was run: as §1

Measured: log2 fold change

ARMC6 (UniProt Q6NXE6)
inactive: [1] -0.027 | [2] 0.063 | [3] -0.024 | [4] -0.069 | [5] 0.013 | [6] 0.004 | [7] -0.22 | [8] -0.103 | [9] 0.102 | [10] -0.065

ATP11C (UniProt Q8NB49)
inactive: [1] 0.039 | [2] 0.049 | [3] 0.032 | [4] 0.001 | [5] 0.041 | [6] 0.003 | [7] 0.042 | [8] 0.002 | [9] -0.024 | [10] 0.036

ARPC5L (UniProt Q9BPX5)
inactive: [1] -0.054 | [2] -0.032 | [3] 0.092 | [4] -0.053 | [5] 0.081 | [6] 0.018 | [7] -0.046 | [8] 0.05 | [9] 0.016 | [10] 0.069

ARL8B (UniProt Q9NVJ2)
inactive: [1] -0.124 | [2] 0.007 | [3] 0.058 | [4] -0.019 | [5] 0.01 | [6] -0.008 | [7] -0.005 | [8] 0.028 | [9] 0.021 | [10] 0.013

ATP2A2 (UniProt P16615)
inactive: [1] -0.024 | [2] 0.018 | [3] -0.029 | [4] 0.006 | [5] -0.046 | [6] 0.005 | [7] 0.017 | [8] 0.011 | [9] -0.01 | [10] -0.013

ATP5MG (UniProt O75964)
inactive: [1] -0.065 | [2] -0.172 | [3] 0.005 | [4] 0.011 | [5] 0.053 | [6] -0.004 | [7] 0.213 | [8] 0.143 | [9] -0.04 | [10] 0.042

ATP6V1F isoform 2 (UniProt Q16864)
inactive: [1] 0 | [2] -0.053 | [3] 0.078 | [4] -0.03 | [5] 0.034 | [6] -0.028 | [7] 0.101 | [8] 0.132 | [9] 0.32 | [10] 0.045

ATP23 (UniProt Q9Y6H3)
inactive: [1] -0.1 | [2] -0.015 | [3] -0.092 | [4] 0.067 | [5] 0.041 | [6] -0.011 | [7] -0.097 | [8] 0.023 | [9] 0.081 | [10] 0.033

ATP6V0A2 (UniProt Q9Y487)
inactive: [1] -0.041 | [2] 0.007 | [3] 0.035 | [4] 0.006 | [5] -0.006 | [6] -0.077 | [7] -0.019 | [8] 0.027 | [9] 0.008 | [10] -0.019

ASH2L (UniProt Q9UBL3)
inactive: [1] 0 | [2] -0.013 | [3] -0.008 | [4] -0.041 | [5] -0.004 | [6] 0.013 | [7] -0.07 | [8] -0.017 | [9] -0.041 | [10] -0.023

ATL3 (UniProt Q6DD88)
inactive: [1] -0.082 | [2] 0.073 | [3] -0.091 | [4] -0.006 | [5] -0.071 | [6] 0.018 | [7] 0.065 | [8] 0.016 | [9] -0.063 | [10] 0.013

ATP5MPL (UniProt P56378)
inactive: [1] 0.011 | [2] -0.036 | [3] 0.022 | [4] 0.007 | [5] 0.182 | [6] -0.039 | [7] 0.108 | [8] 0.149 | [9] -0.031 | [10] 0.018

ARMC8 (UniProt Q8IUR7)
inactive: [1] 0.021 | [2] -0.026 | [3] -0.036 | [4] 0.038 | [5] -0.082 | [6] -0.008 | [7] -0.019 | [8] -0.112 | [9] 0.007 | [10] -0.053

ATP5MD (UniProt Q96IX5)
inactive: [1] -0.104 | [2] -0.026 | [3] 0.124 | [4] -0.029 | [5] 0 | [6] 0.03 | [7] 0.141 | [8] 0.11 | [9] -0.134 | [10] 0

ATP1B3 (UniProt P54709)
inactive: [1] 0 | [2] -0.039 | [3] 0.06 | [4] -0.003 | [5] 0.027 | [6] 0.021 | [7] 0 | [8] -0.02 | [9] 0.065 | [10] 0.043

ATP6V1B2 (UniProt P21281)
inactive: [1] -0.139 | [2] 0.025 | [3] 0.007 | [4] -0.023 | [5] 0.043 | [6] 0.01 | [7] -0.015 | [8] -0.022 | [9] 0.052 | [10] 0.087

Two consecutive entries out of the list so far:
ATP5MD (UniProt Q96IX5)
inactive: [1] -0.104 | [2] -0.026 | [3] 0.124 | [4] -0.029 | [5] 0 | [6] 0.03 | [7] 0.141 | [8] 0.11 | [9] -0.134 | [10] 0

ATP1B3 (UniProt P54709)
inactive: [1] 0 | [2] -0.039 | [3] 0.06 | [4] -0.003 | [5] 0.027 | [6] 0.021 | [7] 0 | [8] -0.02 | [9] 0.065 | [10] 0.043

(cont.)

ATP6V1G1 (UniProt O75348)
inactive: [1] -0.113 | [2] -0.03 | [3] -0.001 | [4] -0.009 | [5] 0.063 | [6] 0.029 | [7] 0.015 | [8] -0.013 | [9] 0.025 | [10] 0.056

ATP5MC2 isoform 2 (UniProt Q06055)
inactive: [1] -0.033 | [2] -0.087 | [3] -0.052 | [4] 0.006 | [5] 0.057 | [6] -0.082 | [7] 0.013 | [8] 0.024 | [9] 0.213 | [10] 0.03

ATP1A3 isoform 3 (UniProt P13637)
inactive: [1] -0.004 | [2] -0.039 | [3] 0.045 | [4] -0.001 | [5] 0.08 | [6] 0.053 | [7] -0.008 | [8] -0.019 | [9] 0.011 | [10] 0.076

ARPC5 (UniProt O15511)
inactive: [1] -0.023 | [2] -0.111 | [3] 0.107 | [4] -0.01 | [5] 0.083 | [6] 0.104 | [7] -0.033 | [8] -0.001 | [9] -0.018 | [10] -0.012

ATP6V1E1 (UniProt P36543)
inactive: [1] -0.143 | [2] 0.015 | [3] -0.034 | [4] -0.043 | [5] 0.03 | [6] 0.048 | [7] -0.03 | [8] -0.039 | [9] 0.036 | [10] 0.094

ATOX1 (UniProt O00244)
active: [9] -0.404
inactive: [1] -0.02 | [2] 0.043 | [3] 0.047 | [4] 0.036 | [5] 0.161 | [6] -0.009 | [7] 0.174 | [8] -0.084 | [10] 0.004

ATP6V1D (UniProt Q9Y5K8)
inactive: [1] -0.056 | [2] 0.007 | [3] 0.018 | [4] 0.007 | [5] 0.055 | [6] -0.011 | [7] -0.003 | [8] 0.018 | [9] 0.058 | [10] 0.052

ASCC3 (UniProt Q8N3C0)
inactive: [1] 0.142 | [2] 0.004 | [3] -0.079 | [4] 0.02 | [5] 0.094 | [6] 0.055 | [7] -0.082 | [8] -0.08 | [9] -0.012 | [10] 0.161

ATL2 (UniProt Q8NHH9)
inactive: [1] 0.026 | [2] 0.034 | [3] 0.081 | [4] -0.008 | [5] -0.129 | [6] 0.031 | [7] 0.083 | [8] 0.18 | [9] -0.014 | [10] 0.104

ATP6V1C1 (UniProt P21283)
inactive: [1] -0.083 | [2] 0.063 | [3] -0.137 | [4] -0.191 | [5] -0.045 | [6] 0.115 | [7] -0.083 | [8] -0.105 | [9] 0.03 | [10] 0.083

ATP2B1 isoform 1 (UniProt P20020)
inactive: [1] 0.034 | [2] -0.007 | [3] 0.04 | [4] -0.009 | [5] 0.02 | [6] 0.006 | [7] 0.048 | [8] 0.02 | [9] 0.05 | [10] 0.031

ARRDC1 (UniProt Q8N5I2)
inactive: [1] 0.014 | [2] -0.035 | [3] -0.045 | [4] 0.065 | [5] -0.073 | [6] 0.079 | [7] 0 | [8] -0.087 | [9] 0.011 | [10] -0.112

ATP6AP2 (UniProt O75787)
inactive: [1] 0.039 | [2] 0.014 | [3] 0 | [4] 0.045 | [5] -0.049 | [6] 0.001 | [7] -0.032 | [8] 0.062 | [9] 0.05 | [10] -0.016
